Measured values from the supplement of paper PMC10849652.
The other results are listed elsewhere or left out.

Protein sequences, listed by entry. Tags and fused reporters are not part of them. Lines headed by an entry give the natural chain unless they say otherwise; changes in a name come on top.
UniProt P60953, whole entry, looked up: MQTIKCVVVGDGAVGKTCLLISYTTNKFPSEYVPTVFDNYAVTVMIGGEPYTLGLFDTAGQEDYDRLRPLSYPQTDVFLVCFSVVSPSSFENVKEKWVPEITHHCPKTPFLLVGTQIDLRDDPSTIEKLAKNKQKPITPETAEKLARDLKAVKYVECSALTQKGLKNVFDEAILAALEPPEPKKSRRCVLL
UniProt P48643, whole entry, looked up: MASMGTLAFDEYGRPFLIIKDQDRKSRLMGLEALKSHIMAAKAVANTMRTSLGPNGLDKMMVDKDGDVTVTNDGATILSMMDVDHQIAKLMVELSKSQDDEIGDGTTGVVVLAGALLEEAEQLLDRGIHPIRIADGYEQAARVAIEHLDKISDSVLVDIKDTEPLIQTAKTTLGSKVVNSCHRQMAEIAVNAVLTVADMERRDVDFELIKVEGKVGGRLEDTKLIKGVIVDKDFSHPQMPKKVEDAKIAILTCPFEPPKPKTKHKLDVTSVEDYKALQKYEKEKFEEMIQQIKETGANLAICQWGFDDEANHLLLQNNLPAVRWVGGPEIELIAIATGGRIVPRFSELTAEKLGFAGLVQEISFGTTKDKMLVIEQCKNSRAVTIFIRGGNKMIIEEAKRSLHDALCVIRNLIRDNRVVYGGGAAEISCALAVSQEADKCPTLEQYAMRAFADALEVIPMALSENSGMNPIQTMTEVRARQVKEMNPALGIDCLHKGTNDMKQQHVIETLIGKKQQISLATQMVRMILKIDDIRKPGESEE
UniProt Q96ER9: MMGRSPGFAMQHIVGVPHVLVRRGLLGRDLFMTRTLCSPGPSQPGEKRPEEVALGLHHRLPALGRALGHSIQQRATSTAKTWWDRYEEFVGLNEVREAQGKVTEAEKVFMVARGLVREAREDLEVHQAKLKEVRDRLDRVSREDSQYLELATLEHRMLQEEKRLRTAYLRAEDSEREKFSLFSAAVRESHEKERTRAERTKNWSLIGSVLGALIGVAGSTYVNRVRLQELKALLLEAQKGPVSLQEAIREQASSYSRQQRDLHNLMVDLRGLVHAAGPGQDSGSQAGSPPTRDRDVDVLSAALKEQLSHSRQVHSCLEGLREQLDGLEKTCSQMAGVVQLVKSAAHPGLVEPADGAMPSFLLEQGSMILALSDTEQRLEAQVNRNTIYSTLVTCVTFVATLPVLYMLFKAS
UniProt O60826, whole entry, looked up: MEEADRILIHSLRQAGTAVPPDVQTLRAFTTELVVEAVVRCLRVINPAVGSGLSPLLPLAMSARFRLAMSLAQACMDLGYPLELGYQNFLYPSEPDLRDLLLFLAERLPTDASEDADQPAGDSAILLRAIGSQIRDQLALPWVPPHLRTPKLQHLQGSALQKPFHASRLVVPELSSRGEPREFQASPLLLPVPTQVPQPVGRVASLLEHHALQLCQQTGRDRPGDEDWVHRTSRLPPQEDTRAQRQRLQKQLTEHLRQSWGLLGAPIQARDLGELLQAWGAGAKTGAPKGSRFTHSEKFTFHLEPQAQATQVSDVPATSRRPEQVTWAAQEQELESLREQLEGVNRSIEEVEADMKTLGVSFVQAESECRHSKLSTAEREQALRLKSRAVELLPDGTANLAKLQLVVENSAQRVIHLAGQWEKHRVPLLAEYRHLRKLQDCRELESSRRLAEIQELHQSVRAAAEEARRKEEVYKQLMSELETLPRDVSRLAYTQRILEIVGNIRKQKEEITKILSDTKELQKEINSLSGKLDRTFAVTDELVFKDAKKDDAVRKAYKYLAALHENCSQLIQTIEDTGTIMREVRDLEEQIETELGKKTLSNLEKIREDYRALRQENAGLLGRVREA
UniProt P15529: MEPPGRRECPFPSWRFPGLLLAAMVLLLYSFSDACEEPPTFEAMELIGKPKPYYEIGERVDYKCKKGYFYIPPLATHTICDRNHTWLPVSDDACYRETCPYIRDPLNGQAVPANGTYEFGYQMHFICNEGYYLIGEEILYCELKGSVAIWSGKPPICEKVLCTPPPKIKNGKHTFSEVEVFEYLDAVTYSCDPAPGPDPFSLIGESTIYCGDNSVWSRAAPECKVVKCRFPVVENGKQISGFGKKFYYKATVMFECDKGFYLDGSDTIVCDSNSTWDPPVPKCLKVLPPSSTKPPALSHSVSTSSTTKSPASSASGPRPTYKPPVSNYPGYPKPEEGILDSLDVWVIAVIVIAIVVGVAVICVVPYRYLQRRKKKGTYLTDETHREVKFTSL
UniProt Q13042, whole entry, looked up: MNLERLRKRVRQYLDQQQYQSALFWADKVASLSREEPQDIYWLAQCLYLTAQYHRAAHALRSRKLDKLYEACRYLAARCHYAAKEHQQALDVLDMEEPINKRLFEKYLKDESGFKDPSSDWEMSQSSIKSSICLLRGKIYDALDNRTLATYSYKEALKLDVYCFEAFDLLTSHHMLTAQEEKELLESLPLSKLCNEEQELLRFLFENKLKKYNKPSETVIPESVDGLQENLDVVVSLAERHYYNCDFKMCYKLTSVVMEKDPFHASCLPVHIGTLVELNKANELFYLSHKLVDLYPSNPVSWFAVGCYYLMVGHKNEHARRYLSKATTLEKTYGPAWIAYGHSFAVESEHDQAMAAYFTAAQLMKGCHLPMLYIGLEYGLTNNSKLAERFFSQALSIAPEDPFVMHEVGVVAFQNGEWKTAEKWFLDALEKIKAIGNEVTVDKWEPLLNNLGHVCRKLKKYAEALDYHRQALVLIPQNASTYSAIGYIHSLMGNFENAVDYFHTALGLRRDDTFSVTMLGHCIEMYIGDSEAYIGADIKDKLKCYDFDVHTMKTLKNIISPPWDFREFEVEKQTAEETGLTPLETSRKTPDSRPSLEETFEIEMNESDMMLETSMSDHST
UniProt O75081: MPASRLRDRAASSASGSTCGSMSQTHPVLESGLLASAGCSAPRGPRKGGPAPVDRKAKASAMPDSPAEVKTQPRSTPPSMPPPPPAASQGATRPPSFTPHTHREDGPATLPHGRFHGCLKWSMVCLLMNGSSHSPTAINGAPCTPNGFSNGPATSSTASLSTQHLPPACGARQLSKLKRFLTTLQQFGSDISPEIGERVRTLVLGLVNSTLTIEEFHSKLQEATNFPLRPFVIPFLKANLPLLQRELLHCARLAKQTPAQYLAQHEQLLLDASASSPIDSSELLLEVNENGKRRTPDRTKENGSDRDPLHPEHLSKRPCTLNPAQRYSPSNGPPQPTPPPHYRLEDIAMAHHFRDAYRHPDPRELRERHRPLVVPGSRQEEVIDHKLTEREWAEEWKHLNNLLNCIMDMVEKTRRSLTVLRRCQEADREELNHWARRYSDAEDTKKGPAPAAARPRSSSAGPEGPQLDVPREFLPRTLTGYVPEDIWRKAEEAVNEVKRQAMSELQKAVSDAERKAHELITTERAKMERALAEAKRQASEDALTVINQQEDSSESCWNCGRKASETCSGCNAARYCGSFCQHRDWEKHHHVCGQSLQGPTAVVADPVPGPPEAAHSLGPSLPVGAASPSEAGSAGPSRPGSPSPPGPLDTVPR
UniProt Q86X55: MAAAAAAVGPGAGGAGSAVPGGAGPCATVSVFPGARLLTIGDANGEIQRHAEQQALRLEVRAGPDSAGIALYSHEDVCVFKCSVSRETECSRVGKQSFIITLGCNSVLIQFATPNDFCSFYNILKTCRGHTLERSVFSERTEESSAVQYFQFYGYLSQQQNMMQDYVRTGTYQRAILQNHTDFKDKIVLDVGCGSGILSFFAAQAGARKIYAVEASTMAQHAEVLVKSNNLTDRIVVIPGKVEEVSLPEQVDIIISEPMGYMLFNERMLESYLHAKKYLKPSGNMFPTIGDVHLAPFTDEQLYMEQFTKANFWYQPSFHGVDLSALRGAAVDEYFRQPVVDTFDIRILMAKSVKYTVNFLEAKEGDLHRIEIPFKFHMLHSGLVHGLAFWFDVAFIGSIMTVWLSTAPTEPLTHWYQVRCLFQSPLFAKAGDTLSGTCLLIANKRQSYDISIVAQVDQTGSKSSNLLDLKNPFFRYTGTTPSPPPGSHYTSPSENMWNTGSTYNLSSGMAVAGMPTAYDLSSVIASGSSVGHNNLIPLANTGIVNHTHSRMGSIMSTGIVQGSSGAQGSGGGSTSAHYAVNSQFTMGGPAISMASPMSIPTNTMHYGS
UniProt Q3V6T2: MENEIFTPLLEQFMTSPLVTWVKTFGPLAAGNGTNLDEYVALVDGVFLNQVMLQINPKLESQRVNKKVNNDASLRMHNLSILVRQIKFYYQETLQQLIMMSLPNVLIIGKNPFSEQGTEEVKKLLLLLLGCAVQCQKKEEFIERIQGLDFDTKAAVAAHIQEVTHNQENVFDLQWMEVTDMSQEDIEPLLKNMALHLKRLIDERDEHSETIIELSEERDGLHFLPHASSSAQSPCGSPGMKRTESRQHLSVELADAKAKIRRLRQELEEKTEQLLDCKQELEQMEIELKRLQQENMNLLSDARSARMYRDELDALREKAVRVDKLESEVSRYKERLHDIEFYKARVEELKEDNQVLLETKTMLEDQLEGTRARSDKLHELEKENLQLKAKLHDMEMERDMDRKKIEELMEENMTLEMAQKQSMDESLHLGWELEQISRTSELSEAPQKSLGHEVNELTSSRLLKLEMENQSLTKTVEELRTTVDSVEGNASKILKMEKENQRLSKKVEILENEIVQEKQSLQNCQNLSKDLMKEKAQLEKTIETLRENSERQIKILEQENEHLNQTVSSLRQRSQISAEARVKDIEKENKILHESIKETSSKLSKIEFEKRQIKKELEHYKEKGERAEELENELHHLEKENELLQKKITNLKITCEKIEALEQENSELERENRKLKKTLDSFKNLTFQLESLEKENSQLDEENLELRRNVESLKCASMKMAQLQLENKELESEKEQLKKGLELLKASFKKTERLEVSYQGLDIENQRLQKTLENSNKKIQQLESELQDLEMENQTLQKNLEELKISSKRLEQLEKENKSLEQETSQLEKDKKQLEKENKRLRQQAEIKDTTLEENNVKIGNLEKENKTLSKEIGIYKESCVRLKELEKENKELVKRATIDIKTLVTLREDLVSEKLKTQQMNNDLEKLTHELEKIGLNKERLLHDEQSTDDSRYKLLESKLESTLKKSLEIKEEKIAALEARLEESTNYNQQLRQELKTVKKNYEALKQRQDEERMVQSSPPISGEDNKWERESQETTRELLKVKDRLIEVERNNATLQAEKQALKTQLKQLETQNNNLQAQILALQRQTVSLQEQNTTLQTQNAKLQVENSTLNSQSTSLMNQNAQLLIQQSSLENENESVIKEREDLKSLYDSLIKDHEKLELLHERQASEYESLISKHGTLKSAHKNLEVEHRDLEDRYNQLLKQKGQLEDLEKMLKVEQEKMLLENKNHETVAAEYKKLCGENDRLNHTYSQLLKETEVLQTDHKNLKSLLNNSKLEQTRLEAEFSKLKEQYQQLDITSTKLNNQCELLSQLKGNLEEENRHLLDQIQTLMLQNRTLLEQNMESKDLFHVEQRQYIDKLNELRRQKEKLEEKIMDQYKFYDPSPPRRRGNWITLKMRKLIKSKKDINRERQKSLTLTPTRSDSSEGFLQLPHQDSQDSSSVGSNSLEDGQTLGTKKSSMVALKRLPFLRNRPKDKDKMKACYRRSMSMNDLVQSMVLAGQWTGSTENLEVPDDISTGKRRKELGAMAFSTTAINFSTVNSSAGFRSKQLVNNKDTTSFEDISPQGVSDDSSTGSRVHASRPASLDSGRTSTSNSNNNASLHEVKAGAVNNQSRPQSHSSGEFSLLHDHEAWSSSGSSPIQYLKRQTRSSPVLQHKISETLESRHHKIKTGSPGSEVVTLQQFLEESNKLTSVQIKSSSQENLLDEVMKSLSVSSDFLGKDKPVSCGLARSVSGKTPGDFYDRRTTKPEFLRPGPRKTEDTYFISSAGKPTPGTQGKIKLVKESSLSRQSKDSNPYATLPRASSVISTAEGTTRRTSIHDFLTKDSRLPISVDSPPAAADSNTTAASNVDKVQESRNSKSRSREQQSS
UniProt O60508: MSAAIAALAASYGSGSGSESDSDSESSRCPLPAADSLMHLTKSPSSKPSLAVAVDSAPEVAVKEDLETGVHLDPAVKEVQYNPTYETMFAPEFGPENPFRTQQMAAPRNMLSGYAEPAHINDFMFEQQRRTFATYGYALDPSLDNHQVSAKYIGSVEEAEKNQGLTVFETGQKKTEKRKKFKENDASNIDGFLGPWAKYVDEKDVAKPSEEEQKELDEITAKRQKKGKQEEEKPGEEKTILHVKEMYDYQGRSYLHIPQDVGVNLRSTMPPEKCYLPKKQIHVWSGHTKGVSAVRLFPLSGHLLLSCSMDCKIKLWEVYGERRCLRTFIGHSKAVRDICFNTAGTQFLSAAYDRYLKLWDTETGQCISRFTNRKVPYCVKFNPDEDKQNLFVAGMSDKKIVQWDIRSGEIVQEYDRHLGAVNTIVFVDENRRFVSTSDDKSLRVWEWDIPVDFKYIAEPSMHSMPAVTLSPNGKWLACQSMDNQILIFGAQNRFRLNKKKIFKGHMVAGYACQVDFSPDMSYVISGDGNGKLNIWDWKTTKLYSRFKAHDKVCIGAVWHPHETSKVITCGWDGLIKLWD

What was measured:
Experiment in all cases: log2 fold change, soluble protein after heating vs DMSO (PISA); higher = thermal stabilisation; K562 cells, 10 uM, 30 min; active = over 0.2 and 3.5 SD of the protein, either way, in both replicates (recomputed)
[1] = compound: CC[C@@H]1C(=O)N(C)c2cnc(Nc3ccc(C(=O)NC4CCN(C)CC4)cc3OC)nc2N1C1CCCC1
Outline: (§1)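 Values are thermal stability changes relative to control samples and are taken from duplicates. They are stated as log2 fold changes. Before quantification by TMTpro 16plex LC-MS/MS with equalised channel sums, K562 cells at 2×10^6 cells/mL were treated with 10 μM compound for 30 min, heated in aliquots for 3 min across 48°C-58°C, pooled, extracted in PBS with 0.5% NP-40 at 4°C, and centrifuged at 21,000xg for 90 min to give the soluble supernatant.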

volasertib = compound: CC[C@@H]1C(=O)N(C)c2cnc(Nc3ccc(C(=O)N[C@H]4CC[C@H](N5CCN(CC6CC6)CC5)CC4)cc3OC)nc2N1C(C)C [volasertib]
Outline: as §1

[2] = compound: CC[C@H](C)N1C=C(C2=C(C=C(C=C21)C3=CN=C(C=C3)N4CCNCC4)C(=O)NCC5=C(C=C(NC5=O)C)C)C
Outline: as §1

epoxomicin = compound: CC[C@H](C)[C@@H](C(=O)N[C@@H]([C@@H](C)O)C(=O)N[C@@H](CC(C)C)C(=O)[C@]1(CO1)C)NC(=O)[C@H]([C@@H](C)CC)N(C)C(=O)C [epoxomicin]
Outline: as §1

[3] = compound: CCn1c(C(=O)N(C2CC2)C2CC2)cc2c3c(ncn3C)c(Nc3cc(C)n(C)n3)nc21
Outline: as §1

[4] = compound: CCn1cc(-c2ccnc3[nH]c(-c4cccc(CN(C)C)c4)cc23)c(-c2ccc(NC(=O)N(C)C)cc2)n1
Outline: as §1

[5] = compound: CN(C)CC(=O)Nc1ccc2[nH]c(=O)c3ccccc3c2c1
Outline: as §1

rosiglitazone = compound: CN(CCOC1=CC=C(C=C1)C[C@H]2C(=O)NC(=O)S2)C3=CC=CC=N3 (racemic) [rosiglitazone]
Outline: as §1

[6] = compound: CN1C2=C(C3=C1C(=O)N(N=C3)CC4=CC(=CC=C4)N)SC(=C2)S(=O)C
Outline: as §1

[7] = compound: CN1CCC(CNc2ccc3ncc(-c4cccc(OC(F)(F)F)c4)n3n2)CC1
Outline: as §1

saracatinib = compound: CN1CCN(CCOc2cc(OC3CCOCC3)c3c(Nc4c(Cl)ccc5c4OCO5)ncnc3c2)CC1 [saracatinib]
Outline: as §1

sotrastaurin = compound: CN1CCN(c2nc(C3=C(c4c[nH]c5ccccc45)C(=O)NC3=O)c3ccccc3n2)CC1 [sotrastaurin]
Outline: as §1

alvocidib = compound: CN1CC[C@H](c2c(O)cc(O)c3c(=O)cc(-c4ccccc4Cl)oc23)[C@H](O)C1 [alvocidib]
Outline: as §1

Tubastatin A = compound: CN1CCc2c(c3ccccc3n2Cc2ccc(C(=O)NO)cc2)C1 [Tubastatin A]
Outline: as §1

[8] = compound: CNC(=O)C1=CC=CC=C1NC2=NC(=NC=C2Cl)NC3=C(C=C(C=C3)N4CCOCC4)OC
Outline: as §1

defactinib = compound: CNC(=O)c1ccc(Nc2ncc(C(F)(F)F)c(NCc3nccnc3N(C)S(C)(=O)=O)n2)cc1 [defactinib]
Outline: as §1

rucaparib = compound: CNCc1ccc(-c2[nH]c3cc(F)cc4c3c2CCNC4=O)cc1 [rucaparib]
Outline: as §1

[9] = compound: CNc1nc(-c2ccc3c(N)n[nH]c3c2)cc(N2C[C@@H](C(=O)NC3CCCCC3)CC[C@H]2C)n1
Outline: as §1

encorafenib = compound: COC(=O)N[C@@H](C)CNc1nccc(-c2cn(C(C)C)nc2-c2cc(Cl)cc(NS(C)(=O)=O)c2F)n1 [encorafenib]
Outline: as §1

[10] = compound: COC(=O)[C@H](CCSC)NC(=O)C1=C(C=C(C=C1)NC[C@H](CS)N)C2=CC=CC=C2
Outline: as §1

Measured: log2 fold change

CCDC86 (UniProt Q9H6F5)
inactive: [1] 0.105 | volasertib 0.317 | [2] -0.074 | epoxomicin -0.237 | [3] -0.034 | [4] 0.294 | [5] -0.064 | rosiglitazone -0.164 | [6] 0.267 | [7] 0.401 | saracatinib -0.08 | sotrastaurin -0.109 | alvocidib 0.367 | Tubastatin A 0.078 | [8] 0.043 | defactinib 0.288 | rucaparib 0.162 | [9] 0.033 | encorafenib 0.107 | [10] -0.026

CDC42 isoform 1 (UniProt P60953)
inactive: [1] 0.062 | volasertib 0.076 | [2] -0.064 | epoxomicin 0.01 | [3] 0.012 | [4] 0.024 | [5] -0.034 | rosiglitazone 0.023 | [6] -0.013 | [7] 0.024 | saracatinib 0.031 | sotrastaurin 0.041 | alvocidib 0.05 | Tubastatin A 0.003 | [8] -0.016 | defactinib -0.006 | rucaparib -0.154 | [9] -0.015 | encorafenib 0.024 | [10] 0.105

CCT5 (UniProt P48643)
inactive: [1] 0.002 | volasertib 0.01 | [2] 0.004 | epoxomicin 0.027 | [3] 0.004 | [4] 0.036 | [5] -0.004 | rosiglitazone 0.015 | [6] -0.03 | [7] 0.008 | saracatinib 0.036 | sotrastaurin -0.007 | alvocidib -0.007 | Tubastatin A -0.034 | [8] -0.026 | defactinib -0.01 | rucaparib -0.096 | [9] -0.002 | encorafenib 0.046 | [10] 0.006

CCDC51 (UniProt Q96ER9)
inactive: [1] -0.064 | volasertib -0.028 | [2] 0.006 | epoxomicin 0.097 | [3] 0.039 | [4] -0.029 | [5] -0.003 | rosiglitazone -0.006 | [6] -0.115 | [7] -0.101 | saracatinib 0.049 | sotrastaurin -0.079 | alvocidib -0.069 | Tubastatin A -0.02 | [8] 0.082 | defactinib -0.06 | rucaparib -0.011 | [9] -0.018 | encorafenib -0.008 | [10] -0.001

CCDC22 (UniProt O60826)
inactive: [1] 0.055 | volasertib -0.141 | [2] -0.039 | epoxomicin 0.009 | [3] -0.001 | [4] 0.014 | [5] 0.027 | rosiglitazone 0.024 | [6] 0.039 | [7] -0.127 | saracatinib -0.096 | sotrastaurin -0.102 | alvocidib -0.025 | Tubastatin A 0.043 | [8] 0.013 | defactinib 0.02 | rucaparib 0.09 | [9] 0.019 | encorafenib -0.002 | [10] 0.02

CBLB (UniProt Q13191)
inactive: [1] 0.012 | volasertib -0.033 | [2] 0.026 | epoxomicin -0.149 | [3] -0.109 | [4] -0.053 | [5] 0.065 | rosiglitazone -0.135 | [6] -0.032 | [7] -0.003 | saracatinib -0.023 | sotrastaurin -0.099 | alvocidib -0.052 | Tubastatin A -0.018 | [8] 0.046 | defactinib 0.086 | rucaparib -0.007 | [9] -0.161 | encorafenib 0.004 | [10] -0.061

CBFB isoform 2 (UniProt Q13951)
inactive: [1] -0.183 | volasertib -0.23 | [2] 0.036 | epoxomicin 0.165 | [3] 0.016 | [4] -0.077 | [5] 0.037 | rosiglitazone 0.049 | [6] -0.082 | [7] -0.001 | saracatinib 0.003 | sotrastaurin -0.112 | alvocidib -0.073 | Tubastatin A -0.007 | [8] 0.041 | defactinib -0.064 | rucaparib 0.051 | [9] -0.066 | encorafenib -0.043 | [10] -0.014

CD59 isoform 2 (UniProt P13987)
inactive: [1] 0.097 | volasertib 0.202 | [2] -0.02 | epoxomicin -0.026 | [3] 0.035 | [4] 0.04 | [5] -0.045 | rosiglitazone -0.073 | [6] 0.001 | [7] 0.057 | saracatinib 0.064 | sotrastaurin 0.027 | alvocidib 0.056 | Tubastatin A -0.058 | [8] -0.056 | defactinib -0.028 | rucaparib 0.072 | [9] -0.015 | encorafenib -0.014 | [10] 0.025

CD46 isoform 2 (UniProt P15529)
inactive: [1] 0.059 | volasertib 0.006 | [2] -0.07 | epoxomicin -0.013 | [3] 0.017 | [4] -0.086 | [5] -0.069 | rosiglitazone -0.012 | [6] -0.189 | [7] 0.102 | saracatinib -0.053 | sotrastaurin 0.052 | alvocidib -0.016 | Tubastatin A -0.024 | [8] -0.045 | defactinib -0.077 | rucaparib -0.052 | [9] 0.013 | encorafenib 0.015 | [10] 0.029

CBX3 (UniProt Q13185)
inactive: [1] -0.104 | volasertib -0.169 | [2] 0.105 | epoxomicin 0.222 | [3] 0.053 | [4] 0.049 | [5] 0.007 | rosiglitazone 0.014 | [6] -0.018 | [7] -0.126 | saracatinib -0.017 | sotrastaurin 0.087 | alvocidib -0.074 | Tubastatin A -0.031 | [8] 0.084 | defactinib -0.11 | rucaparib -0.125 | [9] -0.023 | encorafenib 0.093 | [10] -0.001

CDC16 (UniProt Q13042)
inactive: [1] 0 | volasertib -0.117 | [2] 0.033 | epoxomicin 0.026 | [3] 0.02 | [4] 0.013 | [5] 0.005 | rosiglitazone 0.002 | [6] 0.007 | [7] 0.016 | saracatinib 0.015 | sotrastaurin -0.031 | alvocidib -0.03 | Tubastatin A 0.022 | [8] 0.042 | defactinib -0.028 | rucaparib -0.028 | [9] -0.043 | encorafenib 0.073 | [10] -0.01

CBFA2T3 (UniProt O75081)
inactive: [1] 0.011 | volasertib -0.017 | [2] 0.031 | epoxomicin -0.172 | [3] 0.015 | [4] -0.048 | [5] 0.003 | rosiglitazone 0.095 | [6] 0.052 | [7] 0.178 | saracatinib -0.023 | sotrastaurin 0.129 | alvocidib -0.081 | Tubastatin A 0.14 | [8] -0.035 | defactinib 0.061 | rucaparib -0.035 | [9] -0.047 | encorafenib 0.035 | [10] 0.001

CARM1 (UniProt Q86X55)
inactive: [1] 0.028 | volasertib 0.041 | [2] -0.032 | epoxomicin 0.01 | [3] -0.024 | [4] 0.013 | [5] -0.002 | rosiglitazone 0.01 | [6] -0.073 | [7] -0.029 | saracatinib 0.039 | sotrastaurin 0.041 | alvocidib -0.012 | Tubastatin A -0.027 | [8] -0.014 | defactinib 0.003 | rucaparib -0.047 | [9] -0.041 | encorafenib 0.008 | [10] -0.01

CCDC88A (UniProt Q3V6T2)
inactive: [1] 0.077 | volasertib -0.218 | [2] -0.217 | epoxomicin -0.117 | [3] -0.085 | [4] 0.067 | [5] 0.111 | rosiglitazone 0.124 | [6] 0.122 | [7] -0.114 | saracatinib -0.222 | sotrastaurin 0.112 | alvocidib -0.073 | Tubastatin A 0.094 | [8] 0.032 | defactinib -0.105 | rucaparib -0.135 | [9] 0.017 | encorafenib 0.033 | [10] -0.072

CDC40 (UniProt O60508)
inactive: [1] 0.275 | volasertib 0.251 | [2] 0.044 | epoxomicin -0.25 | [3] -0.057 | [4] 0.124 | [5] -0.09 | rosiglitazone -0.148 | [6] 0.229 | [7] 0.289 | saracatinib -0.01 | sotrastaurin -0.054 | alvocidib 0.667 | Tubastatin A 0.016 | [8] -0.123 | defactinib 0.547 | rucaparib 0.31 | [9] -0.047 | encorafenib -0.068 | [10] -0.048

2 entries drawn at random from those above, as already listed:
CCDC51 (UniProt Q96ER9)
inactive: [1] -0.064 | volasertib -0.028 | [2] 0.006 | epoxomicin 0.097 | [3] 0.039 | [4] -0.029 | [5] -0.003 | rosiglitazone -0.006 | [6] -0.115 | [7] -0.101 | saracatinib 0.049 | sotrastaurin -0.079 | alvocidib -0.069 | Tubastatin A -0.02 | [8] 0.082 | defactinib -0.06 | rucaparib -0.011 | [9] -0.018 | encorafenib -0.008 | [10] -0.001

CD46 isoform 2 (UniProt P15529)
inactive: [1] 0.059 | volasertib 0.006 | [2] -0.07 | epoxomicin -0.013 | [3] 0.017 | [4] -0.086 | [5] -0.069 | rosiglitazone -0.012 | [6] -0.189 | [7] 0.102 | saracatinib -0.053 | sotrastaurin 0.052 | alvocidib -0.016 | Tubastatin A -0.024 | [8] -0.045 | defactinib -0.077 | rucaparib -0.052 | [9] 0.013 | encorafenib 0.015 | [10] 0.029
